Results are given in words; binding and its absence hold for the method and conditions named. A result given as binding can be weak or reduced; the word gives no strength.

From publication PMC5845016 come the findings set out here.

The target of the assay is T1, NELFE phosphorylated peptide QPFQRSI(p)SADDDLQE (human).
T1 sequence (peptide, phosphoserine at serine 115 (eighth residue of the peptide)): QPFQRSISADDDLQE
Kind of assay: crystal structure; 14-3-3 epsilon and peptide mixed 1:5; 40% pentaerythritol propoxylate, 0.2 M sodium thiocyanate, 0.1 M HEPES pH 7.0; sitting drop, 293 K; molecular replacement with PDB 2BR9; both purified.

In the case of 14-3-3 epsilon, the binding result is “binds”.
